Data reported in paper PMC5770445.

B1: LpxD expressed from pUT18C (enzyme, UniProt A7MGT5 1-341)
chain: MPSIRLADLARQLDAELHGDGDIAITGVASMQSAQEGQITFMVNPRYREQLAHCQASAVVMTEADLPFANSAALVVKNPYLTYARMAQILDTTPQPASSIAPSAVIDASARLGNNVAVGANAVIESGVELGDNVVIGPGCFVGKNSKLGAGTRLWANVSIYHDIQIGENCLIQSSTVIGADGFGYANDRGNWVKIPQLGRVIIGDRVEIGACTTIDRGALDDTIIGNGVIIDNQCQIAHNVVIGDNTAVAGGVIMAGSLKIGRYCMIGGASVINGHMEICDKVTVTGMGMVMRPITEPGVYSSGIPLQPNKVWRKTAALVMNIDEMNKRLKAVERKVTQQD
B2: LpxA expressed from pUT18C (enzyme, UniProt A7MI18 1-262)
chain: MIDKTAFIHPTAIVEEGAVIGANAHIGPFCIVGPDVKIGEGTVLKSHVVVNGHTTIGRDNEIYQFASIGEVNQDLKYAGEPTRVEIGDRNRIRESVTIHRGTAQGGGLTKVGSDNLLMINAHVAHDCTVGNRCILANNATLAGHVSVDDFAIIGGMTAVHQFCIIGAHVMVGGCSGVAQDVPPYVIAQGNHATPFGVNIEGLKRRGFSKEALHAIRNAYKLLYRSGKTLDEVKPEIAEIAAKHPEVQPFYDFFARSTRGLIR
B3: His-LpxA (enzyme, UniProt A7MI18 1-262)
chain: B2 chain

What was measured:
[1] = biological target: CSK29544_02616 product (Labp) expressed from pKT25 (C. sakazakii); assay: two-hybrid; bacterial adenylate cyclase-based two-hybrid (BACTH) in E. coli BTH101, pKT25 and pUT18C fusions, β-galactosidase activity in Miller units
[2] = biological target: GST-CSK29544_02616 (C. sakazakii); assay: pull-down; GST pull-down: cells producing His-LpxA and GST-CSK29544_02616 mixed 1:1 and lysed together in IP150 buffer (50 mM Tris-HCl pH 7.4, 150 mM NaCl, 2 mM MgCl2, 0.1% NP-40); GSH-agarose beads, 4 °C, 3 h; immunoblot with anti-GST and anti-His

Binder | binding [1] | binding [2]
B1 | no binding | –
B2 | binds | –
B3 | – | binds

Results are given in words; binding and its absence hold for the method and conditions named. A result given as binding can be weak or reduced; the word gives no strength. For part of these data: In cells and extracts the contact can be indirect. For part of these data: Where a sequence is shown, tags or fusion partners need not be part of it.
